Results published in US12419931B2, “Anti-cancer composition” (ACUPHARM INTERNATIONAL PROPRIETARY LIMITED, priority 2020, dated 2025).
At least one structure is not confirmed: it was looked up by name or label, or the drawing left a doubt. Some compounds share one wording; it may come from a single statement.

System: cultured tissue from needle biopsy, Breast DCIS papillary neoplasm
Experiment: dose response study with cumulative cell death on cultured patient biopsy tissue (patient 19055)
Format: cell-based, human
Conditions: in vitro cultured biopsy sample, patient 19055, Breast DCIS papillary neoplasm
Protocol: Comparative studies were performed using curcumin extract as described above (referred to as ACPJL 08), Sutherlandia leaf extract in water (referred to as ACPJL 35), Sutherlandia leaf extract in 50% ethanol and water solution (referred to as ACPJL 28), Sutherlandia leaf extract in 90% ethanol and water solution (referred to as ACPJL 07) and a combinatorial formulation using the curcumin extract and Sutherlandia leaf extract in water and alcohol according to this invention (referred to as ACPJL 20). These extracts were compared to a number of known botanical isolates with anti-cancer activity, as well as a number of known anti-cancer drugs, using a dose response design with cumulative cell death as the dependent variable. These studies were conducted on in vitro samples of cultured tissue, taken as biopsy samples from patients as part of a standard culture and testing process done in order to optimise treatment.
A representative sample of such a study is provided herein below.
Summary of Study of Patient with Assigned Number 19055
Patient from whom sample was obtained was a person presenting with a diagnosis of Breast DCIS papillary neoplasm. The sample was obtained via needle biopsy, before being cultured.

Compound: Cc1ccc(C(=O)Nc2ccc(CN3CCN(C)CC3)c(C(F)(F)F)c2)cc1C#Cc1cnc2cccnn12 [Ponatinib]
- overall assessment in standard culture and testing process: potential benefit
